Laboratory results as given in publication PMC2807451.
Results are given in words; binding and its absence hold for the method and conditions named. Binding seen in cells or lysates may run through a third protein. Some entries that bind do so weakly or less than the wild type.

Amino acid sequences for entries named in this document (tags omitted).
UniProt Q14457: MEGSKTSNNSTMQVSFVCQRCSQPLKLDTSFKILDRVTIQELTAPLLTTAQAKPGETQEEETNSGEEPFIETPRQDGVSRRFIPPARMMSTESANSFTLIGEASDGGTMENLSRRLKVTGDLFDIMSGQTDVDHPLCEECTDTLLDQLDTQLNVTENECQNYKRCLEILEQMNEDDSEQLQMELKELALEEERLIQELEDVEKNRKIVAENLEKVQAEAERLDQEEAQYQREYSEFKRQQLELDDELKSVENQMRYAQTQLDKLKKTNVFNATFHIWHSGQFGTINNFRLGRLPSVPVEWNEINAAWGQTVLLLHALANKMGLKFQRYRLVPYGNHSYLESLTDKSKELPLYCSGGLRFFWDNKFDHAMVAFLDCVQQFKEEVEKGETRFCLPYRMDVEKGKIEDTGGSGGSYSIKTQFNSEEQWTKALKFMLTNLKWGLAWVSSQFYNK
UniProt P10415: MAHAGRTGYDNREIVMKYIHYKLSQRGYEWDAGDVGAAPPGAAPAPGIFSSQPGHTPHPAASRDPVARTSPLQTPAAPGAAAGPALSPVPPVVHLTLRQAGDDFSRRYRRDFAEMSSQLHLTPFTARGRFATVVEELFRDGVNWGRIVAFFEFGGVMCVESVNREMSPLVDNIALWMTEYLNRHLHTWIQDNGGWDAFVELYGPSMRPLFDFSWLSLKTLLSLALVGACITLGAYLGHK

What was measured:
[1] = target: Beclin 1 (human (endogenous in HCT116-BaxKO)) (UniProt Q14457); test: co-IP; endogenous proteins immunoprecipitated from HCT116-BaxKO lysates (1% CHAPS, 10 mM HEPES, 150 mM NaCl, protease inhibitors), 500 ug proteins, 2 ug antibody (anti-Beclin 1, anti-Bcl-2 or anti-Bcl-xL), Protein G-agarose; cells grown in complete medium or starved for 6 hours; Western blot
[2] = target: Bcl-2 (human (endogenous in HCT116-BaxKO)) (UniProt P10415); test: as above

| binding [1] | binding [2] | Substance |
| --- | --- | --- |
| binds | – | Bcl-2 (from UniProt P10415 1-239) |
| – | binds | Beclin 1 (from UniProt Q14457 1-450) |
